These results are taken from publication PMC3495945, “Org 214007-0: A Novel Non-Steroidal Selective Glucocorticoid Receptor Modulator with Full Anti-Inflammatory Properties and Improved Therapeutic Index” (PLoS ONE, 2012).

In the data set the test system is THP-1 cells. The experiment in a line: Gene expression profiling (microarray) in THP-1 cells. The format is cell-based, human. The note with it: THP-1 microarray, % max. repression / % max. induction, prednisolone = 1. The method, then:
THP-1 cells were incubated with glucocorticoid in the presence of either DMSO (control) or IFNγ/TNFα (220 ng/ml/375 ng/ml). After 6 hours total RNA was isolated and further processed for microarray hybridization as described for the HepG2 cells. The data from all microarray experiments have been deposited in the NCBI Gene Expression Omnibus (GEO) under accession number (identifier will be included in proof). […] Expression of FKBP51, MCP-1, IL-6 and IL-8 protein was measured by specific […]; #A[…] [MCP-1], #A[…] [IL-6] and #A[…] [IL-8]) according to the manufacturer manual. […] Expression of FKBP51, DUSP1 and GILZ was measured by Q-PCR according to the same procedure as described for the HepG2 cells. In this case the following primer-pairs were used: for GAPDH: [NT] and [NT]; for FKBP51: [NT] and [NT]; for DUSP1: [NT] and [NT]; for GILZ: [NT] and [NT]. For the evaluation of protein expression, cells were incubated overnight with a whole dose range of compounds. Supernatants were collected to determine cytokine levels and cell lysates were generated by repeated freeze-thaw cycles to measure expression of FKBP51 protein. Expression of FKBP51, MCP-1, IL-6 and IL-8 was measured by specific […]; #A[…] [MCP-1], #A[…] [IL-6] and #A[…] [IL-8]) according to the manufacturer manual. […] Samples were incubated for 60 min at 23 C. […] Plates were measured using an EnVision-Alpha Reader.

For `Cc1nnsc1C(=O)N[C@H]1CCN2c3ccc(C#N)cc3[C@@H](C)c3ccccc3[C@@H]2C1` [Org 214007-0], the “relative therapeutic index (TIrel)” value was found to be 2.53. For the setting “listed as Org”, the “relative therapeutic index (TIrel)” value came out at 2.5.
